Cleaved PARP in drug-treated melanoma cells

Source: doi:10.1371/journal.pone.0140310, primary screening data, rounded.

Drugs:
perifosine, 2000 nM: CCCCCCCCCCCCCCCCCCOP(=O)([O-])OC1CC[N+](C)(C)CC1
XAV939, 10000 nM: Oc1nc(-c2ccc(C(F)(F)F)cc2)nc2c1CSCC2
STA-4783, 30 nM: CN(NC(=O)CC(=O)NN(C)C(=S)c1ccccc1)C(=S)c1ccccc1
PLX4720, 400 nM: CCCS(=O)(=O)Nc1ccc(F)c(C(=O)c2c[nH]c3ncc(Cl)cc23)c1F
tipifarnib, 50 nM: Cn1cncc1[C@@](N)(c1ccc(Cl)cc1)c1ccc2c(c1)c(-c1cccc(Cl)c1)cc(=O)n2C
nutlin-3, 500 nM: COc1ccc(C2=N[C@@H](c3ccc(Cl)cc3)[C@@H](c3ccc(Cl)cc3)N2C(=O)N2CCNC(=O)C2)c(OC(C)C)c1
lenalidomide, 5000 nM: Nc1cccc2c1CN(C1CCC(=O)NC1=O)C2=O (centres undefined)
VX-702, 2000 nM: NC(=O)c1ccc(N(C(N)=O)c2c(F)cccc2F)nc1-c1ccc(F)cc1F
PF-562271, 400 nM: CN(c1ncccc1CNc1nc(Nc2ccc3c(c2)CC(=O)N3)ncc1C(F)(F)F)S(C)(=O)=O
OSU-03012, 5000 nM: NCC(=O)Nc1ccc(-n2nc(C(F)(F)F)cc2-c2ccc3c(ccc4ccccc43)c2)cc1

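The test systems are human melanoma cell lines, treated with two drugs together for 72 h and then stained and imaged. Values are the share of nuclei positive for cleaved PARP as a percentage of the same share in the DMSO control: 100 is the control level, higher means more apoptosis. Every drug was used at one fixed concentration, the higher of two screened. These are primary screening values without error estimates. Basal and induced levels differ widely between cell lines.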
This is part of the screen, not chosen by result.
An entry leaves out what has no value listed here.

{"pair": "STA-4783 and PLX4720", "WM1716": 91.0, "RPMI-7951": 96.6, "COLO 800": 219, "MZ2-MEL": 150, "WM1745": 313, "WM3619": 2590}
{"pair": "VX-702 and XAV939", "WM1716": 148, "RPMI-7951": 174, "COLO 800": 121, "WM3619": 77.7}
{"pair": "XAV939 and PLX4720", "WM1716": 307, "RPMI-7951": 430, "COLO 800": 206, "MZ2-MEL": 16.4, "WM3619": 101}
{"pair": "STA-4783 and perifosine", "WM1716": 152, "RPMI-7951": 519, "COLO 800": 277, "MZ2-MEL": 172, "WM1745": 358, "WM3619": 454}
{"pair": "lenalidomide and XAV939", "WM1716": 142, "RPMI-7951": 67.2, "COLO 800": 112, "MZ2-MEL": 122, "WM1745": 150, "WM3619": 143}
{"pair": "tipifarnib and perifosine", "WM1716": 380, "RPMI-7951": 402, "COLO 800": 208, "WM1745": 88.0, "WM3619": 95.9}
{"pair": "nutlin-3 and XAV939", "WM1716": 163, "RPMI-7951": 22.4, "COLO 800": 86.5, "MZ2-MEL": 35.2, "WM3619": 98.4}
{"pair": "tipifarnib and VX-702", "WM1716": 375, "RPMI-7951": 162, "COLO 800": 269, "MZ2-MEL": 124, "WM1745": 54.3, "WM3619": 115}
{"pair": "PF-562271 and STA-4783", "WM1716": 177, "RPMI-7951": 115, "COLO 800": 303, "MZ2-MEL": 266, "WM1745": 4110, "WM3619": 2850}
{"pair": "XAV939 and STA-4783", "WM1716": 281, "RPMI-7951": 144, "COLO 800": 118, "MZ2-MEL": 48.2, "WM1745": 329, "WM3619": 453}
{"pair": "PF-562271 and XAV939", "WM1716": 95.4, "RPMI-7951": 194, "COLO 800": 111, "MZ2-MEL": 145, "WM3619": 80.2}
{"pair": "tipifarnib and PLX4720", "WM1716": 570, "RPMI-7951": 248, "COLO 800": 71.7, "MZ2-MEL": 176, "WM1745": 121, "WM3619": 110}
{"pair": "OSU-03012 and PF-562271", "WM1716": 104, "RPMI-7951": 67.5, "COLO 800": 105, "MZ2-MEL": 163, "WM1745": 954, "WM3619": 118}
{"pair": "STA-4783 and OSU-03012", "WM1716": 20.7, "RPMI-7951": 79.7, "COLO 800": 227, "MZ2-MEL": 47.2, "WM1745": 296, "WM3619": 805}
{"pair": "VX-702 and PF-562271", "WM1716": 24.9, "RPMI-7951": 82.4, "COLO 800": 44.0, "MZ2-MEL": 126, "WM1745": 153, "WM3619": 95.9}
{"pair": "VX-702 and lenalidomide", "WM1716": 26.7, "RPMI-7951": 85.2, "COLO 800": 113, "MZ2-MEL": 85.8, "WM1745": 100, "WM3619": 79.0}
{"pair": "VX-702 and STA-4783", "WM1716": 160, "RPMI-7951": 128, "COLO 800": 295, "MZ2-MEL": 38.3, "WM1745": 310, "WM3619": 1970}
{"pair": "perifosine and OSU-03012", "WM1716": 69.8, "RPMI-7951": 78.6, "COLO 800": 46.9, "MZ2-MEL": 94.0, "WM1745": 77.2, "WM3619": 122}
{"pair": "OSU-03012 and lenalidomide", "WM1716": 118, "RPMI-7951": 35.4, "COLO 800": 79.3, "MZ2-MEL": 242, "WM1745": 293, "WM3619": 105}
{"pair": "nutlin-3 and perifosine", "WM1716": 51.4, "RPMI-7951": 547, "COLO 800": 78.8, "MZ2-MEL": 180, "WM1745": 110, "WM3619": 124}
{"pair": "nutlin-3 and PLX4720", "WM1716": 666, "RPMI-7951": 36.3, "COLO 800": 160, "MZ2-MEL": 88.2, "WM1745": 108, "WM3619": 150}
{"pair": "PF-562271 and perifosine", "WM1716": 107, "RPMI-7951": 1530, "COLO 800": 49.0, "MZ2-MEL": 47.3, "WM1745": 101, "WM3619": 80.3}
{"pair": "PLX4720 and perifosine", "WM1716": 648, "RPMI-7951": 471, "COLO 800": 116, "MZ2-MEL": 235, "WM1745": 86.7, "WM3619": 50.2}
{"pair": "lenalidomide and perifosine", "WM1716": 125, "RPMI-7951": 171, "COLO 800": 126, "MZ2-MEL": 115, "WM1745": 81.2, "WM3619": 96.3}
{"pair": "tipifarnib and lenalidomide", "WM1716": 125, "RPMI-7951": 46.6, "COLO 800": 193, "MZ2-MEL": 76.6, "WM1745": 123, "WM3619": 112}
{"pair": "lenalidomide and PF-562271", "WM1716": 169, "RPMI-7951": 230, "COLO 800": 51.9, "MZ2-MEL": 247, "WM1745": 127, "WM3619": 77.3}

The last 3 entries again:

Pair,WM1716,RPMI-7951,COLO 800,MZ2-MEL,WM1745,WM3619
lenalidomide and perifosine,125,171,126,115,81.2,96.3
tipifarnib and lenalidomide,125,46.6,193,76.6,123,112
lenalidomide and PF-562271,169,230,51.9,247,127,77.3